Reference: PubChem BioAssay AID328 (DTP/NCI, 2004)
The list does not hold the whole screen: it is rich in T/C values a quarter to a half above the control, in often repeated tests (any T/C) and in doses without a T/C. Other doses and runs of a compound stand elsewhere. T/C gives the treated animals as a percentage of the vehicle group. Some doses have a count of surviving animals in place of a T/C: the source holds a T/C of zero for them, seemingly a mark for toxic or unscored doses. Some survivor counts are full or nearly so, which does not show that the dose was tolerated: the source hardly ever lists a survival T/C far under the control, and the zero likely stands for such cases as well. Counts of survivors are from the toxicity check (mostly the fifth day) where no day follows; animals may have died later. Schedule codes are those of the source, taken here to give the interval after Q, in days (D) or hours (H), and the number of doses after X. Some entries hold several experiments; the values are given in rising order. For survival time, the PubChem record calls one and a half times the control and up active, and a quarter to a half above the control has no call in these data; cut-offs in other NCI protocols can differ. Some T/C values carry the count of animals alive at the toxicity check (mostly the fifth day); without a count, all were alive then.

Tested on: BDF1 mice, P388 leukemia ip, median survival T/C
Assay: NCI In Vivo Anticancer Drug Screen. Data for tumor model P388 Leukemia (intraperitoneal) in B6D2F1 (BDF1) mice
Settings: T/C endpoint: median survival time, higher T/C = longer survival
Method in brief: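 Survival ratio, drug arm over vehicle arm, in mice with a transplanted tumour.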

[1] = dose: 50.0 mg/kg/injection, schedule: Q01DX009 (ip), vehicle: saline with Tween-80
[2] = dose: 100.0 mg/kg/injection, schedule: Q01DX009 (ip), vehicle: saline with Tween-80
[3] = dose: 200.0 mg/kg/injection, schedule: Q01DX009 (ip), vehicle: saline with Tween-80
[4] = dose: 50.0 mg/kg/injection, schedule: Q04DX002 (ip), vehicle: saline with Tween-80
[5] = dose: 100.0 mg/kg/injection, schedule: Q04DX002 (ip), vehicle: saline with Tween-80
[6] = dose: 200.0 mg/kg/injection, schedule: Q04DX002 (ip), vehicle: saline with Tween-80
[7] = dose: 400.0 mg/kg/injection, schedule: Q04DX002 (ip), vehicle: saline with Tween-80
[8] = dose: 100.0 mg/kg/injection, schedule: Q01DX009 (ip), vehicle: saline
[9] = dose: 400.0 mg/kg/injection, schedule: Q04DX003 (ip), vehicle: Klucel (hydroxypropylcellulose) (HPC)
[10] = dose: 25.0 mg/kg/injection, schedule: Q01DX009 (ip), vehicle: saline with Tween-80
[11] = dose: 100.0 mg/kg/injection, schedule: Q04DX003 (ip), vehicle: saline with Tween-80
[12] = dose: 200.0 mg/kg/injection, schedule: Q04DX003 (ip), vehicle: saline with Tween-80
[13] = dose: 50.0 mg/kg/injection, schedule: Q01DX009 (ip), vehicle: saline
[14] = dose: 200.0 mg/kg/injection, schedule: Q01DX009 (ip), vehicle: saline
[15] = dose: 100.0 mg/kg/injection, schedule: Q01DX009 (ip), vehicle: Klucel (hydroxypropylcellulose) (HPC)
[16] = dose: 200.0 mg/kg/injection, schedule: Q01DX009 (ip), vehicle: Klucel (hydroxypropylcellulose) (HPC)

## CCc1cc2c(cc1C(=O)/C=C\C(=O)O)C(C)(C)CCC2(C)C
dose: 20.0 mg/kg/injection, schedule: Q01DX009 (ip), vehicle: Klucel (hydroxypropylcellulose) (HPC)
  survivor count: 0 of 6

## CCC/C=[CH]/[Hg][Cl]
dose: 6.25 mg/kg/injection, schedule: Q01DX009 (ip), vehicle: other
  survivor count: 6 of 6
dose: 12.5 mg/kg/injection, schedule: Q01DX009 (ip), vehicle: other
  survivor count: 6 of 6
dose: 25.0 mg/kg/injection, schedule: Q01DX009 (ip), vehicle: other
  survivor count: 6 of 6

## CCCC[N+](CCCC)=c1cc(-c2ccc(Cl)cc2)ss1
dose: 50.0 mg/kg/injection, schedule: Q01DX009 (ip), vehicle: water
  survivor count: 2 of 6
dose: 200.0 mg/kg/injection, schedule: Q04DX003 (ip), vehicle: water
  survivor count: 2 of 6
dose: 300.0 mg/kg/injection, schedule: Q04DX003 (ip), vehicle: water
  survivor count: 1 of 6

## CS/C(=C\c1ccc2cc(C)ccc2[n+]1C)N1CCOCC1
dose: 3.13 mg/kg/injection, schedule: Q01DX009 (ip), vehicle: saline
  T/C: 130 % of control
dose: 6.25 mg/kg/injection, schedule: Q01DX009 (ip), vehicle: saline
  T/C: 141 and 149 % of control
dose: 12.5 mg/kg/injection, schedule: Q01DX009 (ip), vehicle: saline
  survivor count: 0 of 6 and 1 of 6
[1]
  survivor count: 0 of 6
[2]
  survivor count: 0 of 6
[3]
  survivor count: 0 of 6

## COC(=S)SCN(CSC(=S)OC)c1ccccc1Cl
[3]
  T/C: 140 % of control
dose: 264.0 mg/kg/injection, schedule: Q01DX009 (ip), vehicle: saline with Tween-80
  T/C: 137 % of control
dose: 400.0 mg/kg/injection, schedule: Q01DX009 (ip), vehicle: saline with Tween-80
  T/C: 141 % of control

## CC(CCC(=O)NC12CC3CC(CC(C3)C1)C2)C1CCC2C3CCC4CC(OC=O)CCC4(C)C3CC(OC=O)C12C (stereo not drawn)
[4]
  survivor count: 6 of 6
[5]
  survivor count: 6 of 6
[6]
  survivor count: 6 of 6
[7]
  survivor count: 6 of 6

## CC1CN1P(=O)(N1CC=CCC1)N1CC1C (stereo not drawn)
dose: 25.0 mg/kg/injection, schedule: Q01DX009 (ip), vehicle: saline
  T/C: 141 % of control
dose: 37.5 mg/kg/injection, schedule: Q01DX009 (ip), vehicle: saline
  T/C: 137 % of control
[8]
  survivor count: 6 of 6
dose: 200.0 mg/kg/injection, schedule: Q04DX003 (ip), vehicle: saline
  survivor count: 6 of 6
dose: 400.0 mg/kg/injection, schedule: Q04DX003 (ip), vehicle: saline
  survivor count: 3 of 6

## C=C/C(C)=C/[C@H](C)C(=O)C[C@H](O)CC1CC(=O)NC(=O)C1
dose: 18.5 mg/kg/injection, schedule: Q01DX009 (ip), vehicle: saline with Tween-80
  T/C: 130 % of control
dose: 37.0 mg/kg/injection, schedule: Q01DX009 (ip), vehicle: saline with Tween-80
  T/C: 147 % of control
dose: 150.0 mg/kg/injection, schedule: Q01DX009 (ip), vehicle: saline with Tween-80
  survivor count: 6 of 6

## OC1CCCC12CC2 (stereo not drawn)
[3]
  survivor count: 4 of 6

## CCOCN(COCC)C(C)Cc1ccccc1 (stereo not drawn)
[1]
  T/C: 139 % of control
[2]
  T/C: 148 % of control
[3]
  survivor count: 4 of 6

## CC(C)c1ccc([C](C)(CC(C)(C)C)[Sn]([CH3])([CH3])[CH3])cc1 (stereo not drawn)
dose: 100.0 mg/kg/injection, schedule: Q04DX003 (ip), vehicle: Klucel (hydroxypropylcellulose) (HPC)
  survivor count: 0 of 6
dose: 200.0 mg/kg/injection, schedule: Q04DX003 (ip), vehicle: Klucel (hydroxypropylcellulose) (HPC)
  survivor count: 0 of 6
[9]
  survivor count: 0 of 6

## CC(=O)Nc1ccccc1F
[9]
  survivor count: 0 of 6

## CCOC(=O)N/N=C\c1cc(OC)c(OC)c(OC)c1
[10]
  survivor count: 6 of 6
[2]
  survivor count: 6 of 6

## CCC1=C2C(=O)c3ccccc3C2=C(C)S(=O)(=O)O1
dose: 12.5 mg/kg/injection, schedule: Q01DX009 (ip), vehicle: saline with Tween-80
  T/C: 136 % of control
[10]
  T/C: 127 % of control
[1]
  survivor count: 4 of 6
dose: 50.0 mg/kg/injection, schedule: Q04DX003 (ip), vehicle: saline with Tween-80
  T/C: 127 % of control
[2]
  survivor count: 0 of 6
[11]
  T/C: 133 % of control [5 of 6 alive]
[3]
  survivor count: 0 of 6
[12]
  T/C: 127 % of control

## NCCNCC[OH2+].NCCNCC[OH2+].O=[N+]([O-])[O-].[Ni+2]
[13]
  survivor count: 4 of 6
[8]
  survivor count: 1 of 6
[14]
  survivor count: 0 of 6

## CN=S(=O)(OCCCCOS(=O)(=NC)c1ccc(C)cc1)c1ccc(C)cc1 (stereo not drawn)
[11]
  T/C: 125 % of control
[12]
  T/C: 139 % of control

## CCOC(=O)c1[nH]c2cccc3c2c1CC(Br)C3=O (stereo not drawn)
dose: 25.0 mg/kg/injection, schedule: Q04DX002 (ip), vehicle: saline with Tween-80
  T/C: 126 % of control
[4]
  T/C: 128 % of control
[5]
  T/C: 125 and 132 % of control
[6]
  T/C: 141 % of control
  survivor count: 5 of 6
[7]
  survivor count: 1 of 6

## ClC1=C(Cl)C(Cl)(C2(Cl)C(Cl)=C(Cl)C(Cl)=C2Cl)C(Cl)=C1Cl
dose: 200.0 mg/kg/injection, schedule: Q01DX009 (ip), vehicle: gum acacia
  survivor count: 3 of 6
dose: 400.0 mg/kg/injection, schedule: Q01DX009 (ip), vehicle: gum acacia
  survivor count: 3 of 6

## C=CCOc1ccccc1N/N=C(\Cl)C(=O)OCC
[2]
  T/C: 135 % of control [5 of 6 alive]
[3]
  survivor count: 0 of 6

## CCO/C=C/C=C1C(=O)N(C)C(=O)N(C)C1=O
dose: 100.0 mg/kg/injection, schedule: Q01DX009 (ip), vehicle: other
  T/C: 125 % of control
dose: 200.0 mg/kg/injection, schedule: Q01DX009 (ip), vehicle: other
  T/C: 130 % of control

## CCN(CC)c1ccc(C2NC(=O)c3ccccc3N2)cc1 (stereo not drawn)
[15]
  survivor count: 6 of 6
[16]
  survivor count: 5 of 6
dose: 400.0 mg/kg/injection, schedule: Q01DX009 (ip), vehicle: Klucel (hydroxypropylcellulose) (HPC)
  survivor count: 0 of 6

## O=C1CSCC(=O)O1
[15]
  survivor count: 4 of 6
[16]
  survivor count: 0 of 6

## CCN(CC)CCCCCCNc1cc(OC)c(F)c2c(C)ccnc12
[13]
  survivor count: 0 of 6
[8]
  survivor count: 0 of 6
[14]
  survivor count: 0 of 6

## Nc1ccc(S(=O)(=O)c2cc(O)c3ccccc3c2O)cc1
dose: 35.0 mg/kg/injection, schedule: Q01DX009 (ip), vehicle: Klucel (hydroxypropylcellulose) (HPC)
  survivor count: 0 of 6
dose: 55.0 mg/kg/injection, schedule: Q01DX009 (ip), vehicle: Klucel (hydroxypropylcellulose) (HPC)
  T/C: 135 % of control
dose: 80.0 mg/kg/injection, schedule: Q01DX009 (ip), vehicle: Klucel (hydroxypropylcellulose) (HPC)
  survivor count: 1 of 6

## O=c1oc2ccccc2c(O)c1C(C/C(=N/O)c1ccccc1)c1ccccc1 (stereo not drawn)
[1]
  survivor count: 6 of 6
[2]
  survivor count: 6 of 6
[11]
  survivor count: 6 of 6

## Fc1c(Cl)c(Cl)c(Cl)c(Cl)c1Cl
[2]
  T/C: 130 % of control
